# Measured values as given in paper PMC5996148.
# Where “and” joins values, the source holds several entries; their conditions need not be identical. Identical values can stand only once. The list shows a part of the results.
# What was measured:
# Assay in all cases: protein microarray (ProtoArray v5.0), streptavidin-Alexa Fluor 647
# Details in all cases: 3'-biotin; 20 mM Tris (pH 7.5), 5 mM MgCl2, 100 mM KCl, 0.1% Tween-20, A/T-rich and random oligonucleotide blockers; temperature not stated; high values mean tight binding
# [1] = system: Leukotriene C4 synthase (human)
# [2] = system: Ligand-dependent nuclear receptor corepressor-like protein (human)
# [3] = system: Linker for activation of T-cells family member 1 (human)
# [4] = system: Lipoma HMGIC fusion partner (human)
# [5] = system: LisH domain-containing protein ARMC9 (human)
# [6] = system: Long-chain-fatty-acid--CoA ligase ACSBG1 (human)
# [7] = system: Low molecular weight phosphotyrosine protein phosphatase (human)
# [8] = system: Ly6/PLAUR domain-containing protein 5 (human)
# [9] = system: Lymphocyte antigen 6D (human)
# Lysozyme C (human) = system: Lysozyme C (human)
# M6PRBP1 (human) = system: M6PRBP1 (human)
# MAD2L1 (human) = system: MAD2L1 (human)
# MAEA (human) = system: MAEA (human)
# MAG (human) = system: MAG (human)
# MAGEA4 (human) = system: MAGEA4 (human)
# MAL2 (human) = system: MAL2 (human)
# MALL (human) = system: MALL (human)
# MAN2C1 (human) = system: MAN2C1 (human)
# MANBA (human) = system: MANBA (human)
# MANSC1 (human) = system: MANSC1 (human)
sequence,measurement,setting,value
GGGAGGCTGAGGCAGG [G4-1 biotinylated (PQS2)],binding signal,[1],-0.318 z-score
same,binding signal,[2],-0.314 z-score
same,binding signal,[3],-0.362 z-score
same,binding signal,[4],-0.277 z-score
same,binding signal,[5],-0.337 z-score
same,binding signal,[6],-0.284 z-score
same,binding signal,[7],-0.305 z-score
same,binding signal,[8],-0.336 z-score
same,binding signal,[9],-0.266 z-score
same,binding signal,Lysozyme C (human),-0.269 z-score
same,binding signal,M6PRBP1 (human),-0.278 z-score
same,binding signal,MAD2L1 (human),-0.278 z-score
same,binding signal,MAEA (human),-0.33 z-score
same,binding signal,MAG (human),-0.331 z-score
same,binding signal,MAGEA4 (human),-0.335 z-score
same,binding signal,MAL2 (human),-0.252 z-score
same,binding signal,MALL (human),-0.334 z-score
same,binding signal,MAN2C1 (human),-0.331 z-score and -0.33 z-score
same,binding signal,MANBA (human),-0.259 z-score
same,binding signal,MANSC1 (human),-0.338 z-score
